The values below come from PubChem BioAssay AID1487 (National Center for Advancing Translational Sciences (NCATS), 2009).

Structures are written as SMILES. The list shows a part of the results. Further columns of the screen follow, without active or inactive calls. The list favours compounds with an active or inconclusive main result. The note in brackets gives the kind of curve behind each potency; many fits are weak.

This assay in a line: qHTS Assay for Modulators of Lamin A Splicing. Conditions: HeLa LMNA splicing GFP/RFP minigene ratio, 48 h. Summed up:
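S3 HeLa cells stably expressing lamin A-EGFP splicing minigene plus DsRed2, 600 cells/well, 48 h compound exposure at 37C. Laser-scanning cytometry; analysed as GFP (500-530 nm)/RFP (575-640 nm) total intensity ratio; 0.5% DMSO vehicle.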

Where [1] appears, read: measured here: GFP splicing reporter channel.
Where [2] appears, read: measured here: RFP viability control channel.

Turning to `C=CCn1c(COc2ccc(Cl)cc2)nnc1SCc1ccc(C#N)cc1`, the AC50 reads like this: under setting [1], 12.6 µM [rising, single point]; under setting [2], 35.5 µM [rising, single point]. In the case of `Oc1ccc(Cl)cc1/C=C/c1ccc2cccc(O)c2n1`, under setting [2], the AC50 is 25.1 µM [rising, single point]. Regarding `Cc1ccc(Cl)cc1NC(=O)CC(O)(C(F)(F)F)C(F)(F)F`, the AC50 under setting [1] is 20 µM [rising, single point] and the AC50 under setting [2] is 35.5 µM [rising, single point]. Turning to `CC(=O)c1ccc(OCCCC(=O)N2CCN(S(=O)(=O)c3cccs3)CC2)cc1`, the AC50 by setting is: under setting [1], 10 µM [rising, partial curve, poor fit]; under setting [2], 11.2 µM [rising, single point]. `COc1ccc(NC(=O)CN(Cc2ccccc2)S(C)(=O)=O)cc1OC`: under setting [1], the AC50 is 35.5 µM [rising, single point].

Turning to `O=C(CNC(=S)N(Cc1ccccc1)Cc1cccnc1)NC1CCCC1`, the concentration at half-maximal activity (AC50) under setting [2] was 10 µM [rising, partial curve].

As for `Cc1cccc(NC(=O)Cn2nnc(C(=O)Nc3ccccc3Br)c2N)c1C`, the AC50 under setting [2] is 3.55 µM [rising, partial curve, poor fit]. On the same count and under the same terms, the result for `Cn1c(=O)c2c(nc3n2CCS3)n(C)c1=O` reads 5.01 µM [falling, full curve, poor fit].

As to `CCC(=O)c1cc(F)c(N2CCN(S(=O)(=O)c3ccc(C)cc3)CC2)cc1C`, the AC50 under setting [1] was 5.62 µM [rising, partial curve] and the concentration at half-maximal activity (AC50) under setting [2] is 20 µM [rising, partial curve]. As to `CCc1cccc2c(C(=O)COC(=O)/C=C/c3ccccc3OC)c[nH]c12`, under setting [2], the half-maximal activity concentration (AC50) was 2 µM [rising, partial curve, poor fit].

As for `Cc1ccc(/C=C/C(=O)NCCCc2ccccc2)cc1`, the AC50 under setting [2] was 35.5 µM [rising, single point].

For the compound `CS(=O)(=O)c1cnc(-c2cccnc2)nc1N`, the AC50 was 0.0501 µM [falling, full curve, poor fit] under setting [1] and 0.0126 µM [falling, full curve, poor fit] under setting [2]. Regarding `Oc1ccc(Nc2nc3ccccc3nc2Nc2ccc(O)cc2)cc1`, the AC50 runs as follows: under setting [1], 35.5 µM [falling, single point]; under setting [2], 6.31 µM [falling, single point]. Take `O=C(NC(NC(=S)Nc1ccc(Cl)cc1Cl)C(Cl)(Cl)Cl)c1cccc([N+](=O)[O-])c1` (centres undefined): the half-maximal activity concentration (AC50) is 12.6 µM [falling, partial curve] under setting [1] and 12.6 µM [falling, partial curve] under setting [2]. `CCCCSCCCNC(=O)Nc1ccc(CC)cc1`: the half-maximal activity concentration (AC50) under setting [2] is 2.82 µM [falling, partial curve]. For `Oc1c(N=Nc2ccccn2)ccc2ccccc12`, the AC50 is, setting by setting: under setting [1], 0.447 µM [falling, single point]; under setting [2], 0.126 µM [falling, partial curve]. For `CC(C)C(=O)N1CCN(c2ccc(NC(=O)c3ccc4c(c3)OCCO4)cc2Cl)CC1`, the concentration at half-maximal activity (AC50) reads like this: under setting [1], 35.5 µM [falling, single point]; under setting [2], 2.51 µM [falling, partial curve]. For the compound `CC1CCN(CC(=O)Nc2ccc(N3CCCCCC3)cc2)CC1`, the AC50 under setting [1] was 11.2 µM [falling, partial curve, poor fit]. For the compound `O=C(CN1CCC(c2nc3ccccc3s2)CC1)NCc1ccccc1`, the concentration at half-maximal activity (AC50) by setting is: under setting [1], 20 µM [rising, single point]; under setting [2], 22.4 µM [rising, single point]. Turning to `COC1(OC)N=C(N)C2(C#N)C(c3ccc4c(c3)OCO4)C12C#N` (centres undefined), the half-maximal activity concentration (AC50) under setting [2] is 5.62 µM [falling, partial curve, poor fit]. Turning to `O=C(c1ccco1)N(CCC(c1ccccc1)c1ccco1)Cc1ccc(F)cc1` (centres undefined), the AC50 under setting [2] is 17.8 µM [falling, partial curve]. The same measure, in the same setting: the result for `Cc1ccc2c(c1)nnn2C1CCN(S(=O)(=O)c2cccc(S(=O)(=O)N(C)C)c2)CC1` reads 10 µM [rising, partial curve]. On to `Cn1cc(CN2CCCC(CO)(Cc3ccccc3)C2)c2ccccc21` (centres undefined), for which the AC50 runs as follows: under setting [1], 17.8 µM [falling, partial curve]; under setting [2], 1 µM [falling, full curve, poor fit]. As for `Oc1cccc2ccc(/C=C/c3c(F)cccc3Cl)nc12`, under setting [2], the AC50 was 12.6 µM [rising, partial curve, poor fit].

In the case of `N#CC1=C(N)NC(=S)C(C(N)=O)C1c1ccc(Cl)cc1Cl` (centres undefined), under setting [2], the concentration at half-maximal activity (AC50) is 17.8 µM [rising, single point]. For the compound `CCOC(=O)c1c(C)oc2ccc(N(C(=O)c3ccncc3)S(=O)(=O)c3ccc(Br)cc3)cc12`, the AC50 under setting [2] was 7.94 µM [falling, single point]. In the case of `Cc1ccc(S(=O)(=O)N2CCC(=O)N(C(COCc3cccc(C(F)(F)F)c3)C(C)C)CC2)cc1` (centres undefined), the AC50 was 11.2 µM [rising, single point] under setting [1] and 20 µM [rising, single point] under setting [2]. With `O=c1[nH][nH]c(-c2ccccc2O)c1C(C[N+](=O)[O-])c1ccc(Br)cc1` (centres undefined), the half-maximal activity concentration (AC50) is 10 µM [rising, partial curve, poor fit] under setting [1] and 17.8 µM [rising, partial curve, poor fit] under setting [2]. In the case of `CN1c2ccccc2C(C)(C)C12CC(c1ccc(S(=O)(=O)N3CCCCC3)cc1)=NO2` (centres undefined), under setting [2], the half-maximal activity concentration (AC50) is 2 µM [rising, full curve]. Still for that read-out and setting: the result for `Cc1cccc(NC(=O)Cn2c(=O)nc(-c3ccccc3)c3ccccc32)c1C` reads 3.16 µM [rising, partial curve, poor fit]; that for `COc1ccc(C2=NOC(C(=O)Nc3cccnc3)C2)cc1` (centres undefined), 31.6 µM [rising, single point]. On to `Cc1nn(Cc2ccc(Cl)cc2)c(C)c1NC(=O)c1noc2c1CCCCC2`, for which the AC50 under setting [1] was 35.5 µM [rising, single point] and the AC50 under setting [2] is 31.6 µM [rising, single point]. With `CCN(CC)S(=O)(=O)c1ccc(C)c(NC(=O)CSc2nc3ccccc3[nH]2)c1`, the half-maximal activity concentration (AC50) under setting [2] was 22.4 µM [rising, partial curve]. The same measure, in the same setting: the result for `CCNC(=S)N(CCc1c(C)[nH]c2ccccc12)Cc1cc(OC)c(OC)c(OC)c1` reads 14.1 µM [rising, partial curve]. On to `O=C(Nc1ccc(F)c(Cl)c1)c1ccc2c(=O)n3c(nc2c1)CCCCC3`, for which the AC50 under setting [1] was 3.16 µM [rising, full curve] and the AC50 under setting [2] is 3.98 µM [rising, full curve]. Turning to `CCOC(=O)c1c(NC(=O)/C=C/C(=O)O)sc(C)c1-c1ccc(Cl)cc1`, under setting [2], the AC50 is 2 µM [falling, partial curve, poor fit]. Take `CC1CC(NC(=O)N(C)C)N(C)C(=O)N1` (centres undefined): the concentration at half-maximal activity (AC50) is 11.2 µM [falling, partial curve, poor fit] under setting [1] and 7.94 µM [falling, partial curve, poor fit] under setting [2]. For the compound `Cc1nn(Cc2ccc(F)cc2)c(C)c1NC(=O)c1cc(-c2ccc3c(c2)OCO3)on1`, under setting [2], the AC50 is 0.891 µM [falling, full curve, poor fit]. On to `O=S(=O)(Nc1ccc(-c2ccc(N3CCCC3)nn2)cc1)c1cccc(C(F)(F)F)c1`, for which the AC50 is 0.00316 µM [falling, full curve, poor fit] under setting [1] and 0.00355 µM [falling, full curve, poor fit] under setting [2]. For `CC(C)N(CCC(=O)c1ccc2ccccc2c1)Cc1ccccc1`, the AC50 is, setting by setting: under setting [1], 3.55 µM [falling, full curve]; under setting [2], 3.55 µM [falling, full curve].

Turning to `COc1cccc(NC(=O)Cc2nc(-c3ccccc3)sc2-c2ccc(C)cc2)c1`, the AC50 is, setting by setting: under setting [1], 35.5 µM [rising, single point]; under setting [2], 35.5 µM [rising, single point]. Consider `CCOc1ccc(NC(=O)CN2CCN(CC(=O)Nc3ccccc3OCC)CC2)cc1`, for which the half-maximal activity concentration (AC50) reads like this: under setting [1], 0.794 µM [rising, full curve, poor fit]; under setting [2], 0.794 µM [rising, full curve, poor fit]. On to `CC1CCCCN1C(=O)CCc1nnc(Cc2c[nH]c3ccccc23)o1` (centres undefined), for which the AC50 was 0.0224 µM [falling, full curve, poor fit] under setting [1] and 1.12 µM [falling, full curve, poor fit] under setting [2]. For the compound `Cc1nn(Cc2ccc(C(=O)Nc3nccs3)cc2)c(C)c1Cl`, the AC50 runs as follows: under setting [1], 12.6 µM [rising, partial curve]; under setting [2], 15.8 µM [rising, partial curve].

For `Cc1ccc(NC(=S)Nc2ccc(C(C)C)cc2)cc1S(=O)(=O)N1CCCCCC1`, the AC50 is, setting by setting: under setting [1], 8.91 µM [rising, partial curve]; under setting [2], 11.2 µM [rising, partial curve]. Take `Cc1ccc(Nc2nnc(SCc3nc4ccccc4c(=O)[nH]3)s2)cc1`: the half-maximal activity concentration (AC50) under setting [1] is 3.98 µM [rising, full curve].

As to `Cc1ccccc1N1CCN(c2ncnc3c2cnn3Cc2ccc(Cl)cc2)CC1`, the AC50 under setting [2] was 11.2 µM [rising, partial curve]. For `Cc1csc(SCC(=O)Nc2ccc(S(=O)(=O)N3CCCC3)cc2)n1`, the half-maximal activity concentration (AC50) under setting [1] is 12.6 µM [rising, single point]. Consider `CCOc1ccc(S(=O)(=O)Nc2ccccc2C(=O)NCc2ccco2)cc1`, for which the concentration at half-maximal activity (AC50) is 11.2 µM [rising, partial curve, poor fit] under setting [1] and 6.31 µM [rising, partial curve, poor fit] under setting [2].

In the case of `C=CCNC(=S)N/N=C(\C)c1ccccn1`, the concentration at half-maximal activity (AC50) under setting [1] was 15.8 µM [falling, single point]. With `Clc1ccc(OC2CCN(Cc3nc(CC4CC4)no3)CC2)cc1`, the AC50 reads like this: under setting [1], 0.141 µM [falling, single point]; under setting [2], 0.158 µM [falling, full curve, poor fit]. Consider `Cc1cccc(-n2ncc3c(NCc4ccccc4)ncnc32)c1`, for which the AC50 under setting [2] was 7.08 µM [rising, full curve, poor fit]. `Cc1cc(N/N=C/c2ccccc2Cl)nc(NCc2ccccc2)n1`: the AC50 under setting [1] was 35.5 µM [rising, single point] and the AC50 under setting [2] is 35.5 µM [rising, single point].
